Source: article PMC4488436

Biological target: T1, MalE-GltA^22-256 (Myxococcus xanthus) (UniProt Q1D6L0)
T1 sequence: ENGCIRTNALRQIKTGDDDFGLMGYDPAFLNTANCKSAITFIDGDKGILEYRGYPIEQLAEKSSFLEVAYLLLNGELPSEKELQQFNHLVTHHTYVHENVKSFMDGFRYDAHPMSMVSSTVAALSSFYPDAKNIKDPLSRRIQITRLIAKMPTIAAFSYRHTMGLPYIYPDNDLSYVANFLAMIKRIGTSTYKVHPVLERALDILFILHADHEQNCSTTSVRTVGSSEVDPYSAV
Test: pull-down; 300 ug of each purified protein mixed in 1 ml buffer CB1 (20 mM Tris-HCl pH 7.4, 200 mM NaCl, 1 mM DTT, 1 mM EDTA), 1 h at 4°C; MalE protein held on amylose matrix (2 h, 4°C), washed, eluted with 10 mM maltose; immunoblot; both purified

For “GST-GltB^20-275 (Myxococcus xanthus) (domain or fragment)”, the binding was “binds”.

With “GltC^25-673-His6 (Myxococcus xanthus) (domain or fragment)” the binding was “binds”.

Results are given in words; binding and its absence hold for the method and conditions named. Binding can be weak; no strength is given.
